Laboratory results: PubChem BioAssay AID1259264 (Sanger Institute, 2017)
The whole screen tested 794 reagents; this is a part drawn at random. Of all reagents, 15 (1.9%) got an active call. 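Calls rest on knock-down alone at z-score below -3; synergy scores with the three drugs do not decide them.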 Unmarked entries are inactive. Not all columns of the deposit are shown. Not given: the amount of reagent, the time to read-out.

- Test: 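Kinase-wide knock-down to find genes that strengthen targeted drug effects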 (primary screen)
- Cells: CL40 human colorectal cancer cells
- Reagents: siRNA pool against human genes
- Challenge: DMSO, or an anchor drug: BYL719 at 1 µM, cetuximab at 5 µg/ml, or trametinib at 10 nM
- Read-out: 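Viability as a fraction of non-targeting pool control (replicates averaged), control-based robust z-score, plus averaged synergy for each drug: BYL719 1 µM, cetuximab 5 µg/ml, trametinib 10 nM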
- Scale: robust z-score, siRNA alone: higher = more viable cells
- Rule for the call: 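a gene counts as essential when knock-down without drug gives a robust z-score below -3, meaning fewer cells; synergy scores play no part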
- Calls: active = essential (lowers viability alone); inactive = not essential

What is on record for STK16 (serine/threonine kinase 16)?
robust z-score, siRNA alone: 0.539

With TSSK6 (testis specific serine kinase 6), what does the deposit list?
robust z-score, siRNA alone: 0.414

What is on record for PIKFYVE (phosphoinositide kinase, FYVE-type zinc finger containing)?
robust z-score, siRNA alone: -0.648

With SCYL1 (SCY1 like pseudokinase 1), what was measured?
robust z-score, siRNA alone: 0.539

For CDKN1A (cyclin dependent kinase inhibitor 1A), how do the results read?
robust z-score, siRNA alone: 0.226

What did the screen give for DBF4 (DBF4-CDC7 kinase regulatory subunit)?
robust z-score, siRNA alone: 0.539

How did the screen score UCK1 (uridine-cytidine kinase 1)?
robust z-score, siRNA alone: 0.539

With CDKN2D (cyclin dependent kinase inhibitor 2D), what does the deposit list?
robust z-score, siRNA alone: 0.16

With IGF1R (insulin like growth factor 1 receptor), what does the deposit list?
robust z-score, siRNA alone: 0.414

With MKNK1 (MAPK interacting serine/threonine kinase 1), what was measured?
robust z-score, siRNA alone: 0.539

2 entries from above in another layout.
{"target": "CDKN2D (cyclin dependent kinase inhibitor 2D)", "robust z-score, siRNA alone": 0.16}
{"target": "IGF1R (insulin like growth factor 1 receptor)", "robust z-score, siRNA alone": 0.414}

Continued.
With MST1R (macrophage stimulating 1 receptor), how do the results read?
robust z-score, siRNA alone: 0.539

What did the screen give for AAK1 (AP2 associated kinase 1)?
robust z-score, siRNA alone: -0.232

For MAP3K19 (mitogen-activated protein kinase kinase kinase 19), what does the deposit list?
robust z-score, siRNA alone: 0.271

For CILK1 (ciliogenesis associated kinase 1), how do the results read?
robust z-score, siRNA alone: 0.539

How did the screen score IP6K3 (inositol hexakisphosphate kinase 3)?
robust z-score, siRNA alone: -0.304

For TRPM6, what does the deposit list?
robust z-score, siRNA alone: 0.539

For PTK7 (protein tyrosine kinase 7 (inactive)), what does the deposit list?
robust z-score, siRNA alone: 0.183

Which result is listed for STK26 (serine/threonine kinase 26)?
robust z-score, siRNA alone: -0.176

With RIPK3 (receptor interacting serine/threonine kinase 3), how do the results read?
robust z-score, siRNA alone: 0.539
